The list shows only some results of the screen, not a fair sample: it is rich in T/C values a quarter to a half above the control, in often repeated tests (any T/C) and in doses without a T/C. Other doses and runs of a compound stand elsewhere. T/C is the treated group as % of the vehicle group. Some doses have a count of surviving animals in place of a T/C: the source holds a T/C of zero for them, seemingly a mark for toxic or unscored doses. Some survivor counts are full or nearly so, which does not show that the dose was tolerated: survival well below the control is almost never listed, so the zero probably covers shortened survival too. Counts of survivors are from the toxicity check (mostly the fifth day) where no day follows; animals may have died later. Schedules are NCI's codes, read here as Q, the interval in days (D) or hours (H), X, the number of doses. Some entries were tested several times; their values stand side by side, smallest first. Where survival is the endpoint, this PubChem deposit counts one and a half times the control or more as active, and values a quarter to a half above the control carry no call in these data; other NCI protocols may use other cut-offs. Some T/C values carry the count of animals alive at the toxicity check (mostly the fifth day); without a count, all were alive then.
System: BDF1 mice, P388 leukemia ip, median survival T/C
Assay: NCI In Vivo Anticancer Drug Screen. Data for tumor model P388 Leukemia (intraperitoneal) in B6D2F1 (BDF1) mice
Conditions: T/C endpoint: median survival time, higher T/C = longer survival
Summary of the method: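 Read-out is survival of treated animals expressed relative to the vehicle group, as a T/C ratio.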

[1] = dose: 128.0 mg/kg/injection, schedule: Q01DX009 (ip), vehicle: other
[2] = dose: 160.0 mg/kg/injection, schedule: Q01DX009 (ip), vehicle: saline

## COc1cc2cc3c4cc(OC)c(OC)cc4cc[n+]3c(C)c2cc1OC (tested in a mixture with another compound)
dose: 5.0 mg/kg/injection, schedule: Q01DX009 (ip), vehicle: saline
  T/C: 136, 141, 157, 180 % of control
dose: 8.0 mg/kg/injection, schedule: Q01DX008 (ip), vehicle: Klucel (hydroxypropylcellulose) (HPC)
  T/C: 133 % of control
dose: 8.0 mg/kg/injection, schedule: Q01DX008 (ip), vehicle: water
  T/C: 147 % of control
dose: 8.0 mg/kg/injection, schedule: Q01DX009 (ip), vehicle: Klucel (hydroxypropylcellulose) (HPC), evaluated on day 30
  T/C: 146 % of control
dose: 8.0 mg/kg/injection, schedule: Q01DX009 (ip), vehicle: Klucel (hydroxypropylcellulose) (HPC), evaluated on day 60
  T/C: 141 % of control
dose: 8.0 mg/kg/injection, schedule: Q01DX009 (ip), vehicle: other, evaluated on day 30
  T/C: 169 % of control
dose: 8.0 mg/kg/injection, schedule: Q01DX009 (ip), vehicle: other, evaluated on day 60
  T/C: 142, 145, 155 % of control
dose: 8.0 mg/kg/injection, schedule: Q03HX016 (ip), vehicle: other
  T/C: 137 % of control [8 of 10 alive]
dose: 8.0 mg/kg/injection, schedule: Q03HX024 (ip), vehicle: other
  T/C: 145 % of control
dose: 10.0 mg/kg/injection, schedule: Q01DX009 (ip), vehicle: saline
  T/C: 150, 159, 159 [5 of 6 alive], 169 % of control [5 of 6 alive]
dose: 12.5 mg/kg/injection, schedule: Q04DX003 (ip), vehicle: water
  T/C: 131 % of control
dose: 16.0 mg/kg/injection, schedule: Q01DX008 (ip), vehicle: Klucel (hydroxypropylcellulose) (HPC)
  T/C: 137 % of control
dose: 16.0 mg/kg/injection, schedule: Q01DX009 (ip), vehicle: Klucel (hydroxypropylcellulose) (HPC)
  T/C: 142 % of control
dose: 16.0 mg/kg/injection, schedule: Q01DX009 (ip), vehicle: other, evaluated on day 30
  T/C: 176 % of control [9 of 10 alive]
dose: 16.0 mg/kg/injection, schedule: Q01DX009 (ip), vehicle: other, evaluated on day 60
  T/C: 150 [9 of 10 alive], 151 [9 of 10 alive], 153 % of control
dose: 16.0 mg/kg/injection, schedule: Q03HX008 (ip), vehicle: other
  T/C: 125 % of control [9 of 10 alive]
dose: 18.7 mg/kg/injection, schedule: Q01DX009 (ip), vehicle: saline
  T/C: 145 % of control [7 of 10 alive]
dose: 20.0 mg/kg/injection, schedule: Q01DX009 (ip), vehicle: saline
  T/C: 170, 170 [5 of 6 alive], 181, 183 % of control
dose: 25.0 mg/kg/injection, schedule: Q04DX003 (ip), vehicle: other
  T/C: 131 % of control
dose: 25.0 mg/kg/injection, schedule: Q04DX003 (ip), vehicle: water
  T/C: 146 % of control
dose: 32.0 mg/kg/injection, schedule: Q01DX009 (ip), vehicle: Klucel (hydroxypropylcellulose) (HPC)
  T/C: 144 % of control
dose: 32.0 mg/kg/injection, schedule: Q01DX009 (ip), vehicle: other, evaluated on day 30
  T/C: 188 % of control
dose: 32.0 mg/kg/injection, schedule: Q01DX009 (ip), vehicle: other, evaluated on day 60
  T/C: 153 [9 of 10 alive], 168, 175 % of control
dose: 32.0 mg/kg/injection, schedule: Q03HX008 (ip), vehicle: other
  T/C: 146 % of control
dose: 37.5 mg/kg/injection, schedule: Q01DX001 (ip), vehicle: saline
  T/C: 141 % of control
dose: 40.0 mg/kg/injection, schedule: Q01DX009 (ip), vehicle: saline
  T/C: 159, 168, 180, 185 % of control [4 of 6 alive]
dose: 50.0 mg/kg/injection, schedule: Q01DX009 (ip), vehicle: saline with Tween-80
  T/C: 145 % of control
dose: 50.0 mg/kg/injection, schedule: Q04DX003 (ip), vehicle: other
  T/C: 137 % of control
dose: 64.0 mg/kg/injection, schedule: Q01DX009 (ip), vehicle: other, evaluated on day 30
  T/C: 228 % of control
dose: 64.0 mg/kg/injection, schedule: Q01DX009 (ip), vehicle: other, evaluated on day 60
  T/C: 195 and 222 % of control
dose: 64.0 mg/kg/injection, schedule: Q01DX009 (ip), vehicle: other
  survivor count: 6 of 10
dose: 64.0 mg/kg/injection, schedule: Q01DX009 (sc), vehicle: other
  T/C: 134 % of control
dose: 64.0 mg/kg/injection, schedule: Q03HX008 (ip), vehicle: other
  survivor count: 2 of 10
dose: 64.0 mg/kg/injection, schedule: Q03HX016 (ip), vehicle: other
  survivor count: 1 of 10
dose: 64.0 mg/kg/injection, schedule: Q03HX024 (ip), vehicle: other
  survivor count: 0 of 10
dose: 64.0 mg/kg/injection, schedule: Q04DX003 (ip), vehicle: Klucel (hydroxypropylcellulose) (HPC)
  T/C: 139 % of control
dose: 64.0 mg/kg/injection, schedule: Q08DX002 (ip), vehicle: other
  T/C: 133 % of control
dose: 80.0 mg/kg/injection, schedule: Q01DX009 (ip), vehicle: saline
  T/C: 145, 168, 176, 229 % of control [5 of 6 alive]
dose: 100.0 mg/kg/injection, schedule: Q01DX009 (ip), vehicle: saline with Tween-80
  survivor count: 4 of 6
dose: 100.0 mg/kg/injection, schedule: Q04DX003 (ip), vehicle: saline, evaluated on day 30
  T/C: 145, 157, 178 % of control
dose: 100.0 mg/kg/injection, schedule: Q04DX003 (ip), vehicle: saline, evaluated on day 34
  T/C: 186 % of control
dose: 128.0 mg/kg/injection, schedule: Q01DX001 (ip), vehicle: other
  T/C: 127 % of control
dose: 128.0 mg/kg/injection, schedule: Q01DX008 (ip), vehicle: Klucel (hydroxypropylcellulose) (HPC)
  survivor count: 2 of 6
dose: 128.0 mg/kg/injection, schedule: Q01DX008 (ip), vehicle: water
  survivor count: 1 of 6
dose: 128.0 mg/kg/injection, schedule: Q01DX009 (ip), vehicle: Klucel (hydroxypropylcellulose) (HPC)
  survivor count: 9 of 10
dose: 128.0 mg/kg/injection, schedule: Q01DX009 (ip), vehicle: clinical formulation
  survivor count: 10 of 10
[1]
  T/C: 91 % of control
  survivor count: 8 of 10 and 10 of 10
dose: 128.0 mg/kg/injection, schedule: Q03HX008 (ip), vehicle: other
  survivor count: 0 of 10
dose: 128.0 mg/kg/injection, schedule: Q04DX003 (ip), vehicle: water
  survivor count: 3 of 6
dose: 150.0 mg/kg/injection, schedule: Q01DX009 (ip), vehicle: saline
  survivor count: 6 of 10
[2]
  T/C: 122 [5 of 6 alive], 212 [4 of 6 alive], 225 % of control [5 of 6 alive]
  survivor count: 3 of 6
dose: 200.0 mg/kg/injection, schedule: Q01DX009 (ip), vehicle: saline with Tween-80
  survivor count: 5 of 6
dose: 200.0 mg/kg/injection, schedule: Q04DX003 (ip), vehicle: saline, evaluated on day 30
  T/C: 100, 163, 197 % of control
dose: 200.0 mg/kg/injection, schedule: Q04DX003 (ip), vehicle: saline, evaluated on day 34
  T/C: 172 % of control
dose: 200.0 mg/kg/injection, schedule: Q04DX003 (ip), vehicle: water
  survivor count: 4 of 6
dose: 240.0 mg/kg/injection, schedule: Q04DX003 (ip), vehicle: other
  survivor count: 4 of 8
dose: 256.0 mg/kg/injection, schedule: Q01DX001 (ip), vehicle: other
  T/C: 142 % of control [9 of 10 alive]
dose: 256.0 mg/kg/injection, schedule: Q01DX008 (ip), vehicle: Klucel (hydroxypropylcellulose) (HPC)
  survivor count: 0 of 6
dose: 256.0 mg/kg/injection, schedule: Q01DX008 (ip), vehicle: other
  survivor count: 0 of 6
dose: 256.0 mg/kg/injection, schedule: Q01DX008 (ip), vehicle: water
  survivor count: 0 of 6
dose: 256.0 mg/kg/injection, schedule: Q01DX009 (ip), vehicle: Klucel (hydroxypropylcellulose) (HPC)
  survivor count: 0 of 10 and 3 of 10
dose: 256.0 mg/kg/injection, schedule: Q01DX009 (ip), vehicle: clinical formulation
  survivor count: 1 of 10
dose: 256.0 mg/kg/injection, schedule: Q01DX009 (ip), vehicle: other
  survivor count: 0 of 10, 3 of 10, 7 of 10
dose: 256.0 mg/kg/injection, schedule: Q01DX009 (sc), vehicle: other
  T/C: 134 % of control [7 of 10 alive]
dose: 256.0 mg/kg/injection, schedule: Q04DX003 (ip), vehicle: water
  survivor count: 3 of 6
dose: 400.0 mg/kg/injection, schedule: Q01DX009 (ip), vehicle: saline with Tween-80
  survivor count: 0 of 6
dose: 400.0 mg/kg/injection, schedule: Q04DX002 (ip), vehicle: saline
  survivor count: 1 of 3
dose: 400.0 mg/kg/injection, schedule: Q04DX003 (ip), vehicle: other
  survivor count: 0 of 8
dose: 400.0 mg/kg/injection, schedule: Q04DX003 (ip), vehicle: saline, evaluated on day 30
  T/C: 175 % of control
dose: 400.0 mg/kg/injection, schedule: Q04DX003 (ip), vehicle: saline, evaluated on day 34
  T/C: 195 % of control
dose: 400.0 mg/kg/injection, schedule: Q04DX003 (ip), vehicle: saline
  survivor count: 2 of 6 and 3 of 6
dose: 512.0 mg/kg/injection, schedule: Q01DX001 (ip), vehicle: other
  survivor count: 0 of 10
dose: 512.0 mg/kg/injection, schedule: Q01DX009 (sc), vehicle: other
  survivor count: 3 of 10
dose: 512.0 mg/kg/injection, schedule: Q04DX003 (ip), vehicle: Klucel (hydroxypropylcellulose) (HPC)
  survivor count: 2 of 6
dose: 512.0 mg/kg/injection, schedule: Q04DX003 (ip), vehicle: other
  survivor count: 0 of 10 and 1 of 6
dose: 512.0 mg/kg/injection, schedule: Q04DX003 (ip), vehicle: water
  survivor count: 1 of 6
dose: 512.0 mg/kg/injection, schedule: Q08DX002 (ip), vehicle: other
  survivor count: 1 of 10
dose: 600.0 mg/kg/injection, schedule: Q01DX001 (ip), vehicle: saline
  survivor count: 10 of 10
dose: 600.0 mg/kg/injection, schedule: Q04DX003 (ip), vehicle: saline
  survivor count: 10 of 10
dose: 1024.0 mg/kg/injection, schedule: Q01DX001 (ip), vehicle: other
  survivor count: 0 of 10
dose: 1024.0 mg/kg/injection, schedule: Q01DX001 (oral), vehicle: other
  survivor count: 4 of 10
dose: 1024.0 mg/kg/injection, schedule: Q01DX001 (sc), vehicle: other
  survivor count: 6 of 10

— PubChem BioAssay AID328 (DTP/NCI, 2004)
